Source: paper PMC9266683
Results are given in words; binding and its absence hold for the method and conditions named. For some assays here: Binding seen in cells or lysates may run through a third protein. Some binding calls cover weakened binding; strength is not graded here. Tags and fused reporters may be left off the sequences shown.

Protein sequences, listed by entry. Tags and fused reporters are not part of them. Lines headed by an entry give the natural chain unless they say otherwise; changes in a name come on top. Chains listed by the source or under a name are the forms on record and can include a tag or linker. Residues count along the entry.
UniProt O48686: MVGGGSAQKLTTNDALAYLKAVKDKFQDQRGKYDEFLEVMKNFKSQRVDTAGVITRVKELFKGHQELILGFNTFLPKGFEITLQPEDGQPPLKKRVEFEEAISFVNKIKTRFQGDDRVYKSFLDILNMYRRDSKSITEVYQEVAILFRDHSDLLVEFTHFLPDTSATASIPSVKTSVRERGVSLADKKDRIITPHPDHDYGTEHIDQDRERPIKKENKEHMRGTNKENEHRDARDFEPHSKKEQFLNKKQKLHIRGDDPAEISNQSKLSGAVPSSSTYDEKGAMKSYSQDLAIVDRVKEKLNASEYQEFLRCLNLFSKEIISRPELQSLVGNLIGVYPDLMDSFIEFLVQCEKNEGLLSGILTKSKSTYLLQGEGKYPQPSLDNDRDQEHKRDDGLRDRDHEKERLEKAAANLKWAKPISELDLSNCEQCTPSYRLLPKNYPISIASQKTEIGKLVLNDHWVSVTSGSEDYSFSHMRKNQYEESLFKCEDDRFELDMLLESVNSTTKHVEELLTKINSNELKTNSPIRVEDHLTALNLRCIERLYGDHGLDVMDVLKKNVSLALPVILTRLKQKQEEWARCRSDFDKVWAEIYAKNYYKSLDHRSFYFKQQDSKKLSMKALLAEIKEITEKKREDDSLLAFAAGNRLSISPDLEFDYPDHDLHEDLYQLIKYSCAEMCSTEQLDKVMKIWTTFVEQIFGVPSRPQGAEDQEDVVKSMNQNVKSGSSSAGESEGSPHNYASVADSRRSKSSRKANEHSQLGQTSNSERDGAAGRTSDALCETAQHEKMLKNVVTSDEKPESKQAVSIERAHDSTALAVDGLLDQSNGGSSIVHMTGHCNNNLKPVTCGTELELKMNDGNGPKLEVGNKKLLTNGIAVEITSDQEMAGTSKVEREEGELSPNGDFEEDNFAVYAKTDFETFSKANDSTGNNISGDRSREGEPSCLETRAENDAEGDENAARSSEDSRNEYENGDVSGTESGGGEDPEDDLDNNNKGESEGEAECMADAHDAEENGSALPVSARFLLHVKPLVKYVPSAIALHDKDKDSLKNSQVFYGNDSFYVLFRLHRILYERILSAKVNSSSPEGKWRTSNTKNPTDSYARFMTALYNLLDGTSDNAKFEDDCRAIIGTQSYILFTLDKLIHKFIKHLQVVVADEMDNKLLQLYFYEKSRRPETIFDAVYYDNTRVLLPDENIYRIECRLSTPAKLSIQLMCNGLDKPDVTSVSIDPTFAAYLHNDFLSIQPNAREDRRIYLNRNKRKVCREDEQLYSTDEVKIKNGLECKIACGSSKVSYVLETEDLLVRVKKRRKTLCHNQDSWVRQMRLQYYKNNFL
SNL3-PAH (aa 1–390), fused to the GAL4 binding domain: residues 1-390 of O48686
UniProt O04539, residues 1-420: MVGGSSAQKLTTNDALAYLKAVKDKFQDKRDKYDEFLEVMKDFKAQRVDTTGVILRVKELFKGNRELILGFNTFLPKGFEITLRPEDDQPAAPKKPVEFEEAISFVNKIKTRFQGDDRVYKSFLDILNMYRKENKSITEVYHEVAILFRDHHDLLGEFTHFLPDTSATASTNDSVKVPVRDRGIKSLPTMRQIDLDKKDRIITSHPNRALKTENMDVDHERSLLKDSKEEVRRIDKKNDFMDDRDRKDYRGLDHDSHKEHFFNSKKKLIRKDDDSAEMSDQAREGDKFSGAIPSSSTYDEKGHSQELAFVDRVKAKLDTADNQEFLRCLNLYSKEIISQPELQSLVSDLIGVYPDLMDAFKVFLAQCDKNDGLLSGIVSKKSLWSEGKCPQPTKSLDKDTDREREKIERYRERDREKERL
UniProt Q9XIE1, residues 1-250: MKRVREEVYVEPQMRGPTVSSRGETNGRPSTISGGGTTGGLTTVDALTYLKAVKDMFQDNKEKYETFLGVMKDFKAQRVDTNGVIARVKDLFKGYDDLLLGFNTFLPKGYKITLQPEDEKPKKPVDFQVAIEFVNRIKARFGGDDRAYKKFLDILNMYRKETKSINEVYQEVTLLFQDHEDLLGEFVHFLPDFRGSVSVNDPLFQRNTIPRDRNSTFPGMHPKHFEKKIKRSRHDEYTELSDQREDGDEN

T1: SNL1 (SIN3-LIKE 1), full length, fused to the GAL4 binding domain (Arabidopsis thaliana) (UniProt Q9SRH9)
T1 sequence: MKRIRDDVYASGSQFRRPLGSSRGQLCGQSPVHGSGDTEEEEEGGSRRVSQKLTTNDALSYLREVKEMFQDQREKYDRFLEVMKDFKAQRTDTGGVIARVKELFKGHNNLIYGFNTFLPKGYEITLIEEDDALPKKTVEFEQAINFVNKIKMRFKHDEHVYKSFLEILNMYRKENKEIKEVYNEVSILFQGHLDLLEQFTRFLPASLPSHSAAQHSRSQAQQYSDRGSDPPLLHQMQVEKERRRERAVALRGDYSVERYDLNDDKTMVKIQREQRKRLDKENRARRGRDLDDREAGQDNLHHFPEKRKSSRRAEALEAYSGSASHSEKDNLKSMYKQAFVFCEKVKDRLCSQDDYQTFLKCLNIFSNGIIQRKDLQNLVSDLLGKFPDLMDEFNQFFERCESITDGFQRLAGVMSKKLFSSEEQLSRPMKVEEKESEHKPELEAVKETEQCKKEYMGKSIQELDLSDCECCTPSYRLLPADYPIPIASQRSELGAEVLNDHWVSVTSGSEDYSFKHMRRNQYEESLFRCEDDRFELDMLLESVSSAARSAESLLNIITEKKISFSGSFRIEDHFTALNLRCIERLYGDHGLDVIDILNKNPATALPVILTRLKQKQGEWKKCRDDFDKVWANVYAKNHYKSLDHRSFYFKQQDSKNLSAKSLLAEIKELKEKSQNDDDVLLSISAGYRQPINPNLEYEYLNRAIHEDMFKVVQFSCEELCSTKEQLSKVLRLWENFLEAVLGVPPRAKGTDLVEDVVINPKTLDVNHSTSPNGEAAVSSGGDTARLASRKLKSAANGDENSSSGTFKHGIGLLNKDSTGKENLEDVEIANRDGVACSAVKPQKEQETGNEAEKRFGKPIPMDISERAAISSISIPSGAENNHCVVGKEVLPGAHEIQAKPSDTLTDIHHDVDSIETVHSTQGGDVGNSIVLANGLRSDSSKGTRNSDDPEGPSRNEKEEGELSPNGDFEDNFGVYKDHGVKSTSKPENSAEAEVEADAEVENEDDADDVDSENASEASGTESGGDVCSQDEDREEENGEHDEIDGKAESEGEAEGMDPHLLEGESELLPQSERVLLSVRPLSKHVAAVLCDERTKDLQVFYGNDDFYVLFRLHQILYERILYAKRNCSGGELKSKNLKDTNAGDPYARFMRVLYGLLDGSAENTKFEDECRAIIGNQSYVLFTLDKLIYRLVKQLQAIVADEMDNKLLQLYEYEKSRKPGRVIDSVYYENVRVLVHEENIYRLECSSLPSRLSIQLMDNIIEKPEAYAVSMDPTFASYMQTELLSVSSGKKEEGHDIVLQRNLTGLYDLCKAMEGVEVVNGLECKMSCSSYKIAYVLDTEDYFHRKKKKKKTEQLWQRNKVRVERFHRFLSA

T2: SNL1-PAH (aa 1–450), fused to the GAL4 binding domain (Arabidopsis thaliana) (UniProt Q9SRH9)
T2 sequence: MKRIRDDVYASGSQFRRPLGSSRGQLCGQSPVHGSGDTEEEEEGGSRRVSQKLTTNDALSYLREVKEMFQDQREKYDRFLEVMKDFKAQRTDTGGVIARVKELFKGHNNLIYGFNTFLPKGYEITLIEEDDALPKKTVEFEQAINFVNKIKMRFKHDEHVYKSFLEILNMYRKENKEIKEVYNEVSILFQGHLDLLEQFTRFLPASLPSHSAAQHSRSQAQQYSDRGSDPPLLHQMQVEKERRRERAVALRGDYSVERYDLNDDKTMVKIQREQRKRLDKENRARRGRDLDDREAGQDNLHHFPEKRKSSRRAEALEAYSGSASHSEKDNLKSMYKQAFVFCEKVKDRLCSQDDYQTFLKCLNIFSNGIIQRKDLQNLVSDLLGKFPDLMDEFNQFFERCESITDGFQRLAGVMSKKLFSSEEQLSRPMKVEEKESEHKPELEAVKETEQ

T3: GST-SNL1-PAH (aa 1–450) (Arabidopsis thaliana) (UniProt Q9SRH9)
T3 sequence: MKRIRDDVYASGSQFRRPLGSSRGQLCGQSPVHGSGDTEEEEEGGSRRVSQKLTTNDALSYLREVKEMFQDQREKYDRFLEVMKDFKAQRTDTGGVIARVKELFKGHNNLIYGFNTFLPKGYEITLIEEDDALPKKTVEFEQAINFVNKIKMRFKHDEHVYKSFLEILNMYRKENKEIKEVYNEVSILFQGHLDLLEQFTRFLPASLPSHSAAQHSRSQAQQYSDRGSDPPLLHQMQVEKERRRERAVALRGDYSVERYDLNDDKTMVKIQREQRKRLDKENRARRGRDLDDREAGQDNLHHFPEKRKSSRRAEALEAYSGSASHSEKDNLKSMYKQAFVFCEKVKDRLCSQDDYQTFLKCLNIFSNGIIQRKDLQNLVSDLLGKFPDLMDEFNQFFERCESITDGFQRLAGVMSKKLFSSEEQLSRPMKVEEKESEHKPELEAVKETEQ

T4: GST-SNL2-PAH (aa 1–430) (Arabidopsis thaliana) (UniProt Q9LFQ3)
T4 sequence: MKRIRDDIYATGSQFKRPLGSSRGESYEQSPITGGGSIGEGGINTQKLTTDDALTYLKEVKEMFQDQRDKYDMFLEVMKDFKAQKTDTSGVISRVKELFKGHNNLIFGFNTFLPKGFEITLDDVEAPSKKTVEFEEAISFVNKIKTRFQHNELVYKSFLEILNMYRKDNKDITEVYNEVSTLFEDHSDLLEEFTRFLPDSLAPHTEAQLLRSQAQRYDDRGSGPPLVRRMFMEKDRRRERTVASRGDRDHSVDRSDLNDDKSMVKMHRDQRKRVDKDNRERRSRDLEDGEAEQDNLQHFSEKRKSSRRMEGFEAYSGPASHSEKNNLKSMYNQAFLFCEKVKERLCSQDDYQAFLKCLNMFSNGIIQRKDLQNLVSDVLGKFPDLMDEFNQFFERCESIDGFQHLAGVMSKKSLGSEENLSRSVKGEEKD

T5: GST-SNL6-PAH (aa 1–300) (Arabidopsis thaliana) (UniProt Q9XIK6)
T5 sequence: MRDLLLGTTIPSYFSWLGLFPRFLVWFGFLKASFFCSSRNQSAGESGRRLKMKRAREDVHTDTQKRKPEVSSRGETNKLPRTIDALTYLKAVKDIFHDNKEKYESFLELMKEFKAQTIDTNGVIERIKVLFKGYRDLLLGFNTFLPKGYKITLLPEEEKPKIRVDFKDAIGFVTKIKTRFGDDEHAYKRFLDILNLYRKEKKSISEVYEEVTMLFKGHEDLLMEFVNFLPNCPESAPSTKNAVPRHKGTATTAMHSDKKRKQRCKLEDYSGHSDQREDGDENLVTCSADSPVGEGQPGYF


Columns and labels:
[1] = molecular target: T1, SNL1 (SIN3-LIKE 1), full length, fused to the GAL4 binding domain (Arabidopsis thaliana); assay: two-hybrid; Matchmaker GAL4 two-hybrid system 3, yeast AH109; VAL1 constructs in pGADT7 (AD), SNL constructs in pGBKT7 (BD); growth on medium lacking Trp, Leu, His and Ade, 3-5 d at 30 °C
[2] = molecular target: T2, SNL1-PAH (aa 1–450), fused to the GAL4 binding domain (Arabidopsis thaliana); assay: as above
[3] = molecular target: SNL3 (SIN3-LIKE 3), full length, fused to the GAL4 binding domain (Arabidopsis thaliana) (UniProt O48686); assay: as above
[4] = molecular target: SNL3-PAH (aa 1–390), fused to the GAL4 binding domain (Arabidopsis thaliana) (UniProt O48686); assay: as above
[5] = molecular target: T3, GST-SNL1-PAH (aa 1–450) (Arabidopsis thaliana); assay: pull-down; supernatants of E. coli lysates in PBS pH 7.5 mixed in roughly equal amounts, incubated with glutathione beads or Ni Singarose 6FF overnight at 4 °C, washed five times with PBS; GST fusion held, His fusion detected with anti-His antibody
[6] = molecular target: T4, GST-SNL2-PAH (aa 1–430) (Arabidopsis thaliana); assay: as above
[7] = molecular target: GST-SNL3-PAH (aa 1–390) (Arabidopsis thaliana) (UniProt O48686); assay: as above
[8] = molecular target: GST-SNL4-PAH (aa 1–420) (Arabidopsis thaliana) (UniProt O04539); assay: as above
[9] = molecular target: GST-SNL5-PAH (aa 1–250) (Arabidopsis thaliana) (UniProt Q9XIE1); assay: as above
[10] = molecular target: T5, GST-SNL6-PAH (aa 1–300) (Arabidopsis thaliana); assay: as above

binding [1] | binding [2] | binding [3] | binding [4] | binding [5] | binding [6] | binding [7] | binding [8] | binding [9] | binding [10] | Binder
no binding | no binding | no binding | no binding | – | – | – | – | – | – | VAL2-CW (aa 437–655), yeast two-hybrid fusion (domain or fragment, UniProt Q5CCK4 437-655) SSLTSARKRVRNIGTKSKRLLIDSVDVLELKITWEEAQELLRPPQSTKPSIFTLENQDFEEYDEPPVFGKRTLFVSRQTGEQEQWVQCDACGKWRQLPVDILLPPKWSCSDNLLDPGRSSCSAPDELSPREQDTLVRQSKEFKRRRLASSNEKLNQSQDASALNSLGNAGITTTGEQGEITVAATTKHPRHRAGCSCIVCSQPPSGKGKHKPSCTCTVC
– | – | – | – | binds | binds | binds | binds | binds | binds | His-VAL1-CW (aa 458–673) (domain or fragment, UniProt Q8W4L5 458-673) DDPTRVKEKKRTRTIGAKNKRLLLHSEESMELRLTWEEAQDLLRPSPSVKPTIVVIEEQEIEEYDEPPVFGKRTIVTTKPSGEQERWATCDDCSKWRRLPVDALLSFKWTCIDNVWDVSRCSCSAPEESLKELENVLKVGREHKKRRTGESQAAKSQQEPCGLDALASAAVLGDTIGEPEVATTTRHPRHRAGCSCIVCIQPPSGKGRHKPTCGCT
no binding | no binding | no binding | no binding | – | – | – | – | – | – | VAL2, yeast two-hybrid fusion (protein, UniProt Q5CCK4 1-780) MESIKVCMNALCGAASTSGEWKKGWPMRSGDLASLCDKCGCAYEQSIFCEVFHAKESGWRECNSCDKRLHCGCIASRFMMELLENGGVTCISCAKKSGLISMNVSHESNGKDFPSFASAEHVGSVLERTNLKHLLHFQRIDPTHSSLQMKQEESLLPSSLDALRHKTERKELSAQPNLSISLGPTLMTSPFHDAAVDDRSKTNSIFQLAPRSRQLLPKPANSAPIAAGMEPSGSLVSQIHVARPPPEGRGKTQLLPRYWPRITDQELLQLSGQYPHLSNSKIIPLFEKVLSASDAGRIGRLVLPKACAEAYFPPISLPEGLPLKIQDIKGKEWVFQFRFWPNNNSRMYVLEGVTPCIQSMQLQAGDTVTFSRTEPEGKLVMGYRKATNSTATQMFKGSSEPNLNMFSNSLNPGCGDINWSKLEKSEDMAKDNLFLQSSLTSARKRVRNIGTKSKRLLIDSVDVLELKITWEEAQELLRPPQSTKPSIFTLENQDFEEYDEPPVFGKRTLFVSRQTGEQEQWVQCDACGKWRQLPVDILLPPKWSCSDNLLDPGRSSCSAPDELSPREQDTLVRQSKEFKRRRLASSNEKLNQSQDASALNSLGNAGITTTGEQGEITVAATTKHPRHRAGCSCIVCSQPPSGKGKHKPSCTCTVCEAVKRRFRTLMLRKRNKGEAGQASQQAQSQSECRDETEVESIPAVELAAGENIDLNSDPGASRVSMMRLLQAAAFPLEAYLKQKAISNTAGEQQSSDMVSTEHGSSSAAQETEKDTTNGAHDPVN
